Measured values from paper PMC10369948 (bioRxiv, 2023).

These compounds were tested on SRC1 PAS-B-Nurr1 AF1^28−51 fusion (assay: 1H-15N HSQC NMR titration). Conditions: 1:10 protein:ligand, 0.2 mM protein, pH 6.8, 30 °C.
Type: binding

Row | Compound | Mean CSP ± Standard Deviation for All Peaks (ppm)
1 | CCCCC[C@H](O)/C=C/[C@H]1[C@H](O)CC(=O)[C@H]1CCCCCCC(=O)O [8-iso PGE1] | 0.013 ± 0.010 ppm
2 | CCCCC[C@H](O)/C=C/[C@H]1C=CC(=O)[C@@H]1CCCCCCC(=O)O [PGA1] | 0.014 ± 0.019 ppm
3 | CCCCC[C@H](O)/C=C/C1=C(CCCCCCC(=O)O)C(=O)CC1 [PGB1] | 0.026 ± 0.026 ppm
4 | CCCCC[C@H](O)/C=C/[C@H]1C(=O)C[C@H](O)[C@@H]1CCCCCCC(=O)O [PGD1] | 0.008 ± 0.004 ppm
5 | CCCCC[C@H](O)/C=C/[C@H]1[C@H](O)CC(=O)[C@@H]1C/C=C\CCCC(=O)O [PGE2] | 0.009 ± 0.007 ppm
